Screening data, single-dose tests

From ChEMBL document CHEMBL3988442, “University of Dundee, Small-Polar-MMV Screening Library” (2021).

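Whole-cell growth test on Mycobacterium tuberculosis, read after 4 days in a medium based on cholesterol and the lipid DPPC; the read-out is not stated. Compounds at 50 µM. The record gives no direction; compounds that gave an IC50 in retests scored well above the rest, so higher reads as more growth inhibition. Size under these conditions: about 69,000 compounds, about 370 of them at 50% or above in at least one test.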

The filed quantity is “Percent Effect” (%).
How 0% and 100% were set is not recorded. Most values in the screen are low, and negative values occur.
This is an unselected part of the compounds tested.
Two or more numbers in one place are separate tests of the same structure; such repeats can differ widely.

| # | compound | percent effect |
|---|---|---|
| 1 | `[H][C@]12CCN(C(=O)COC)CC[C@@]1([H])S(=O)(=O)N(Cc1ccccc1)C2` | -21.9 |
| 2 | `Cc1nc(NCCc2ccc(Cl)cc2)cc(C(=O)N2CCOCC2)n1` | 1.185 |
| 3 | `CC(=O)N1CCC2(CC1)C(=O)N(c1cccnc1)c1ccc(F)cc12` | -10.55 |
| 4 | `[H][C@@]12C[C@@H](C(=O)NC(C)C)CN(Cc3ccc4ccccc4n3)[C@]1([H])CCO2` | -15.87 and -15.25 |
| 5 | `Cn1cc(CN2CCC3(C2)CN(Cc2ccsc2)C3)cn1.O=C(O)C(F)(F)F.O=C(O)C(F)(F)F` | -8.033 |
| 6 | `c1ccc(CNC2CCc3ncnn3C2)nc1` (centres undefined) | -16.72 |
| 7 | `COCc1ccc(CNC(=O)C2=NN(c3ccccc3)C(=O)CN2)cc1` | 8.616 |
| 8 | `COc1ccnc(CNc2cc(C3CC3)ncn2)c1` | 13.39 |
| 9 | `O=c1cc(CN2CCC(CCc3ccc(O)cc3)CC2)[nH]c(=O)[nH]1` | 17.63 |
| 10 | `Cc1ccc(NC(=O)N2CC(C(=O)NC(C)C)C3(CCOCC3)C2)cc1` (centres undefined) | -36.27 |
| 11 | `COCCCN(C)c1nc(-c2ccncc2)nc(C)c1C` | 25.13 |
| 12 | `COc1ccccc1OCCN1CCCC(c2noc(C3CC3)n2)C1` (centres undefined) | -6.125 |
| 13 | `Cc1ccc2c(c1)cc(CN1CC[C@](C)(O)[C@H](C)C1)n2C` | 7.026 |
| 14 | `CCn1c(C)cc(C(=O)NCc2ccc(CS(C)(=O)=O)cc2)c1C` | -5.219 and -0.59 |
| 15 | `Cc1occc(=O)c1OCc1noc(C(=O)NC(C)C)n1` | -5.224 |
| 16 | `[H][C@]12CC[C@]([H])(CN(Cc3cccnc3)C1)N(C(=O)Cc1ccncc1)C2` | 7.795 |
| 17 | `O=C(O)C(F)(F)F.[H][C@@]12CN(Cc3ccsc3)C[C@]1([H])OCCN2c1ccnc(N(C)C)n1` | 13.16 |
| 18 | `CCO[C@@H]1CCN(C(=O)c2ccc[nH]2)[C@@H]1Cc1cccnc1.O=C(O)C(F)(F)F` | 8.626 and 4.617 |
| 19 | `CCC(C)(C)NC(=O)Nc1nnc(-c2ccccn2)s1` | -1.197 |
| 20 | `CC(NC(=O)c1cc(N2CCNC2=O)ccc1F)c1ccc(F)cc1` (centres undefined) | 10.29 |
| 21 | `Cc1cc(NC(=O)NCc2ccccn2)n(C)n1` | -8.573 |
| 22 | `COCCn1ccc(NC(=O)Nc2ccccn2)n1` | -4.302 |
| 23 | `O=C(O)C(F)(F)F.[H][C@]12CCN(C(=O)CC3CC3)[C@@]1([H])CC[C@@H](COCc1cccc(C)n1)O2` | -4.738 and -5.444 |
| 24 | `Cc1nn(C)c(Cl)c1C1CCCN1C(=O)CCNc1ncccn1` (centres undefined) | -12.8 |
| 25 | `CCCOc1cc(C)ccc1NC(=O)NCCNC(=O)C(C)C` | -32.29 |
| 26 | `Cc1ccc(CN2CCC(Cc3nnc(CO)n3C)CC2)cc1C` | 0.8814 |
| 27 | `CCN(CC)C(=O)CNC(=O)c1cnc(-c2ccccc2)nc1` | 5.636 |
| 28 | `CCNC(=O)[C@@H]1C[C@H](N)CN1c1cc(CC)nc(N(C)C)n1` | 5.839 |
| 29 | `CCOc1nnc(CN(CC)CC(=O)NC(C)C)s1` | -2.72 and -17.48 |
| 30 | `[H][C@@]12CCN(C(=O)Cc3cccc(O)c3)C[C@]1([H])[C@@H](c1ccccc1)CN2C` | 7.317 and -10.99 |
| 31 | `O=C1CC2(CCSC2)C(=O)N1Cc1coc(-c2cccc(F)c2)n1` (centres undefined) | 6.209 |
| 32 | `CCc1ncc(C(=O)N(CC)CCOC)cn1` | 13.3 |
| 33 | `CN(Cc1ccccc1F)C(C(N)=O)c1ccccc1` (centres undefined) | -22.26 |
| 34 | `NCCn1cc(C(=O)N2CCNC(=O)C2c2cccc(F)c2)nn1` (centres undefined) | 2.702 |
| 35 | `O=C(c1ccco1)N1CCOCC2(C1)CN(c1ccccn1)C(=O)CO2` (centres undefined) | -16.14 |
| 36 | `Cc1ncc(CNCC2CCC(C(N)=O)CC2)n1-c1ccccc1` (centres undefined) | -14.3 |
| 37 | `Cn1c(CCC(=O)N2CCCC3(CNC(=O)O3)C2)nc2cccnc21` (centres undefined) | -13.59 |
| 38 | `C[S+]([O-])CCCNC(=O)c1cc(Br)c2c(c1)OCCO2` (centres undefined) | 8.476 |
| 39 | `CC(NCc1cnc(C2CCC2)s1)c1cccc(-n2cccn2)c1` (centres undefined) | 46.44 |
| 40 | `Cc1cc(C2CCC2)nc(N2CC(n3cccn3)C2)n1` | 8.585 |
| 41 | `CO[C@@H]1CCN(C(=O)Cc2ccc(F)cc2)[C@@H]1Cc1cccnc1.O=C(O)C(F)(F)F` | 17.66 |
| 42 | `COc1cc(N2CC3(CCN(c4ncccn4)C3)C2)ncn1` | 12.65 and -10.46 |
| 43 | `O=C(NCc1cnc2n1CCN(Cc1ccoc1)C2)c1ccno1.O=C(O)C(F)(F)F` | -23.07 |
| 44 | `COc1c(CNCC(=O)N2CCN(C)CC2)c(C(C)C)nn1C` | -60.26 |
| 45 | `O=S(=O)(c1c(N2CCCCC2)ccc2nonc12)N1CCCCC1` | 2.535 |
| 46 | `CC(Oc1ccc2c(c1)OCO2)C(=O)N1CCC(N2CCCC2)CC1` (centres undefined) | 0.3259 |
| 47 | `Cc1noc(C(C)C)c1C(=O)NCC(c1ccsc1)N(C)C` (centres undefined) | -22.43 |
| 48 | `CC(NC(=O)CCOc1ccc(F)cc1)c1nnc2n1CCCCC2` (centres undefined) | -23.71 |
| 49 | `CC(=O)c1ccccc1-c1cc(C(=O)O)cc(S(=O)(=O)NC(C)C)c1` | -13.23 |
| 50 | `Cc1c(C(=O)N(C)CC(F)(F)F)nnn1-c1ccccc1Cl` | 15.61 |
| 51 | `Cc1csc2c(=O)n3c(nc12)CCN(C(=O)c1ccnn1C)CC3` | 0.5704 |
| 52 | `COC(=O)C1(NCc2nc(C)c(C)o2)CCC(C)CC1` (centres undefined) | 22.83 |
| 53 | `CN(C)CC1(O)CCCN(c2noc(-c3ccccc3)n2)CC1` (centres undefined) | -15.94 |
| 54 | `Cn1ncc2c1CCCC2NCc1cccc(OC2CCCC2)c1` (centres undefined) | -27.05 |
| 55 | `CC(C)Cn1cncc1CNC(=O)c1cccc(-n2cnnc2)c1` | -11.36 and 1.051 |
| 56 | `CNC(=O)NC(=O)CCSc1ccccc1Cl` | -7.632 |
| 57 | `CN(Cc1ccsc1)C(=O)Nc1ccc(N(C)C)nc1` | 4.175 |

Some entries from above, unchanged:

{"compound": "[H][C@@]12C[C@@H](C(=O)NC(C)C)CN(Cc3ccc4ccccc4n3)[C@]1([H])CCO2", "percent effect": "-15.87 and -15.25"}
{"compound": "[H][C@@]12CCN(C(=O)Cc3cccc(O)c3)C[C@]1([H])[C@@H](c1ccccc1)CN2C", "percent effect": "7.317 and -10.99"}
{"compound": "COc1ccccc1OCCN1CCCC(c2noc(C3CC3)n2)C1", "stereo": "centres undefined", "percent effect": -6.125}
{"compound": "NCCn1cc(C(=O)N2CCNC(=O)C2c2cccc(F)c2)nn1", "stereo": "centres undefined", "percent effect": 2.702}
{"compound": "[H][C@]12CCN(C(=O)COC)CC[C@@]1([H])S(=O)(=O)N(Cc1ccccc1)C2", "percent effect": -21.9}
{"compound": "Cc1cc(C2CCC2)nc(N2CC(n3cccn3)C2)n1", "percent effect": 8.585}
{"compound": "O=C1CC2(CCSC2)C(=O)N1Cc1coc(-c2cccc(F)c2)n1", "stereo": "centres undefined", "percent effect": 6.209}